The results in this text go back to paper PMC11655868.

The chains behind the UniProt entries cited, without tags or fusion partners.
UniProt Q01094: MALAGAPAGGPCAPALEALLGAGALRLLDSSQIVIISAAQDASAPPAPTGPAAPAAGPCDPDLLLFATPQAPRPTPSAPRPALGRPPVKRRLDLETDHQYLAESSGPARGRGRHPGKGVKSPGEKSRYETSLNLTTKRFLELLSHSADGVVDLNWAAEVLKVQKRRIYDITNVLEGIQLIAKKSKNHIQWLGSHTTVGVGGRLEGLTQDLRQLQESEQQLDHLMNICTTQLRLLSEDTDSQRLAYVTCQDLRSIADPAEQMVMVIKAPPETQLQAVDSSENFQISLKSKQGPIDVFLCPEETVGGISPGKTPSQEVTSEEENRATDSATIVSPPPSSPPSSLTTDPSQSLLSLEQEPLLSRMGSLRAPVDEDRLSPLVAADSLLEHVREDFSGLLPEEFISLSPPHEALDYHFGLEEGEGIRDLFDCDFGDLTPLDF
UniProt P51784: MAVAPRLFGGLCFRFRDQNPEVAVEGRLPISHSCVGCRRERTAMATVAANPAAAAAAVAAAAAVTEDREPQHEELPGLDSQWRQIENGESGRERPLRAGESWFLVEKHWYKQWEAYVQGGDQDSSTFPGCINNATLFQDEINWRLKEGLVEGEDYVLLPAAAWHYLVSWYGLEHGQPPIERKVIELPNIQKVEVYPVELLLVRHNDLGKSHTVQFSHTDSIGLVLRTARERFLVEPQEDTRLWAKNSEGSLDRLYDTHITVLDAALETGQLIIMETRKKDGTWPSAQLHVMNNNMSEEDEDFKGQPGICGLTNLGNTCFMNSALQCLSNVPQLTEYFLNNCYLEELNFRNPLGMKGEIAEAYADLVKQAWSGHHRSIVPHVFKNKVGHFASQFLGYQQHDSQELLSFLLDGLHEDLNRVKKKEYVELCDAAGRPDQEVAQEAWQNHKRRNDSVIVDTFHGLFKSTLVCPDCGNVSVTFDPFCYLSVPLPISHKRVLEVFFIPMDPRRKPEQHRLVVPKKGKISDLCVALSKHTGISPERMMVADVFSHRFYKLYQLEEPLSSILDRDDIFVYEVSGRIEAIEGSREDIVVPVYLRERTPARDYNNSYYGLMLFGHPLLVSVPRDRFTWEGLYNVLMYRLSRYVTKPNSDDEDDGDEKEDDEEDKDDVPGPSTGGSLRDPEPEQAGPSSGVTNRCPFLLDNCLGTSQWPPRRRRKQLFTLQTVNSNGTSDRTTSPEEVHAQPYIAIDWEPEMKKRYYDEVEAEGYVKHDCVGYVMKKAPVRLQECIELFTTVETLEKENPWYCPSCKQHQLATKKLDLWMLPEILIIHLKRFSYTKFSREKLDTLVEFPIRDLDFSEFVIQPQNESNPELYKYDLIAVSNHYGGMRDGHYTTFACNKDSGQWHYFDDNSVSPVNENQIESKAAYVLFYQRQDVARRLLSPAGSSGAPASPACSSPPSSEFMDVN
UniProt P20700: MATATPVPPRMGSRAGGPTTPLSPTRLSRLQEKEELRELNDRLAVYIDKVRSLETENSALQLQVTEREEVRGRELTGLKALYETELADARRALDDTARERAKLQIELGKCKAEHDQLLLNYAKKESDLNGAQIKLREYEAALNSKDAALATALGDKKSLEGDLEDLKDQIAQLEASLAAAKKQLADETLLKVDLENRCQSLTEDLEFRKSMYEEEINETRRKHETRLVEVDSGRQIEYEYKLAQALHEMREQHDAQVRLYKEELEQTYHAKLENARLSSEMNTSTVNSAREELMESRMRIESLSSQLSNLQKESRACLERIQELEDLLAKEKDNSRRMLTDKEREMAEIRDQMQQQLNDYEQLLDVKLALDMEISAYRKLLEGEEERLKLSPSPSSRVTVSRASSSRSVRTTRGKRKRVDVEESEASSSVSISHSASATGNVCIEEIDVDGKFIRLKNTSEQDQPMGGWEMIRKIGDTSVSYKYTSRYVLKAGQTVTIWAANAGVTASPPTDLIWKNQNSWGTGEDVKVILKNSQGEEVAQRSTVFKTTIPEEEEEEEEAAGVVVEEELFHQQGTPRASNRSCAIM

Read-outs that look alike come from different tables or passages of the source. These are yes or no findings as the source states them, for the method shown. In cells and extracts the contact can be indirect. Some results given as binding are weak or reduced against the parent protein; the word gives no strength. For part of these data: Tags and fused reporters may be left off the sequences shown.

For test [1], the target named is T1, full-length RRM1 (Flag-tagged construct) (UniProt P23921).
T1 sequence: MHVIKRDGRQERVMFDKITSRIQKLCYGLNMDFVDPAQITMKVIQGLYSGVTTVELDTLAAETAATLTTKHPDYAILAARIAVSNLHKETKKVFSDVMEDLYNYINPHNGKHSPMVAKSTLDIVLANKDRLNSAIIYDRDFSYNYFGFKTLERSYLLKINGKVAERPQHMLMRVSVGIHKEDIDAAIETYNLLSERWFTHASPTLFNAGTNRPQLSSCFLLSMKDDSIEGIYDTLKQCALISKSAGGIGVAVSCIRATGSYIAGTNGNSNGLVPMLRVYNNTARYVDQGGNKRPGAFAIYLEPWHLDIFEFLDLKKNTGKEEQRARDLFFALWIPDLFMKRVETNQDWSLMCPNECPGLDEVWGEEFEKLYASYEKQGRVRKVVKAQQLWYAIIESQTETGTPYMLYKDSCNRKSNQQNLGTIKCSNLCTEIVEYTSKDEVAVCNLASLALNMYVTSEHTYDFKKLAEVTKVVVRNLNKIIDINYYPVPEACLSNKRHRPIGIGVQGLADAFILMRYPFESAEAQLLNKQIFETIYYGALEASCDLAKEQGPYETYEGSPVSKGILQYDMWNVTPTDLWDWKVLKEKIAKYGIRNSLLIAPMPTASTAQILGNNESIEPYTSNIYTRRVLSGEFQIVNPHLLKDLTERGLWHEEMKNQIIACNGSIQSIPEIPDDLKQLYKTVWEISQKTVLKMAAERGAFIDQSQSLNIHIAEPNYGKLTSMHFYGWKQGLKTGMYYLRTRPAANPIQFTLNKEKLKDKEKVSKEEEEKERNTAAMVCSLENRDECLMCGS
Kind of test: co-IP; HEK293T cells transfected with RRM1 constructs, 5 Gy irradiation; immunoprecipitation with anti-flag antibody, immunoblot. A general note: A western blot detects proteins with antibodies after separation by electrophoresis.

In test [2] the target is T2, Ribonucleotide reductase M1 (RRM1) (human (endogenous in HeLa)) (UniProt P23921).
T2 sequence: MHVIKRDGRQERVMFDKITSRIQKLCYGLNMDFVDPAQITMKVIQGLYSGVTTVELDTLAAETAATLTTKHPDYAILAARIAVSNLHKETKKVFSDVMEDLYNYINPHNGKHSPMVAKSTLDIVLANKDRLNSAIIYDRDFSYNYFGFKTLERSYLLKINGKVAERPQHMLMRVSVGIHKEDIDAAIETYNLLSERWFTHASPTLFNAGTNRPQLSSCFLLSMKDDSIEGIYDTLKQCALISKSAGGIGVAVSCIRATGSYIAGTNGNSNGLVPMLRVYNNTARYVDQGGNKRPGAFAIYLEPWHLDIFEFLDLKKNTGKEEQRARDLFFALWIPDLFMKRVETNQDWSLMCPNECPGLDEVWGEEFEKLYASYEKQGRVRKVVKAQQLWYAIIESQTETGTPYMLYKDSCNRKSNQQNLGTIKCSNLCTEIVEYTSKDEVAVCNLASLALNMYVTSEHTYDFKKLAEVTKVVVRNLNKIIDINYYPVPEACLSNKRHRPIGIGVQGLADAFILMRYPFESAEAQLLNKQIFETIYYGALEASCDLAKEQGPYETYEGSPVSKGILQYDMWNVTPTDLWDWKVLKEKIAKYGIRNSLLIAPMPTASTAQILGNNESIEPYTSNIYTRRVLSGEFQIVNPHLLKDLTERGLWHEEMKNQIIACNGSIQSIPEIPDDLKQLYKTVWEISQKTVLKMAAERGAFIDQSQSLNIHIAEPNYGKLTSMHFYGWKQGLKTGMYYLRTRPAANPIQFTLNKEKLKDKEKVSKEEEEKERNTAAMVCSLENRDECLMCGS
As to the kind of experiment: co-IP; endogenous proteins in HeLa cell lysates; respective antibody or non-specific IgG with protein G-agarose beads overnight at 4 °C, five washes with PBS, Western blot; cells untreated or 5 Gy irradiated, wild-type compared with RRM1 knockdown.

The target of test [3] is E2F1 (human (endogenous in HeLa)) (UniProt Q01094). Described as above.
Test [4] deals with T2, Ribonucleotide reductase M1 (RRM1) (human (endogenous in HeLa)). The description is as above. The source holds these as a separate data set.

Regarding USP11 (from UniProt P51784 1-963), the binding entry in test [1], in test [2] and in test [3] was “binds” throughout.

For the molecule LaminB1 (from UniProt P20700 1-586), the binding result in test [1] and in test [2] was “binds” throughout.

B1: NUP50 (protein, UniProt Q9UKX7 1-468)
chain: MAKRNAEKELTDRNWDQEDEAEEVGTFSMASEEVLKNRAIKKAKRRNVGFESDTGGAFKGFKGLVVPSGGGRFSGFGSGAGGKPLEGLSNGNNITSAPPFASAKAAADPKVAFGSLAANGPTTLVDKVSNPKTNGDSQQPSSSGLASSKACVGNAYHKQLAALNCSVRDWIVKHVNTNPLCDLTPIFKDYEKYLANIEQQHGNSGRNSESESNKVAAETQSPSLFGSTKLQQESTFLFHGNKTEDTPDKKMEVASEKKTDPSSLGATSASFNFGKKVDSSVLGSLSSVPLTGFSFSPGNSSLFGKDTTQSKPVSSPFPTKPLEGQAEGDSGECKGGDEEENDEPPKVVVTEVKEEDAFYSKKCKLFYKKDNEFKEKGIGTLHLKPTANQKTQLLVRADTNLGNILLNVLIPPNMPCTRTGKNNVLIVCVPNPPIDEKNATMPVTMLIRVKTSEDADELHKILLEKKDA
Turning to B1, the binding entry in test [4] is on record as “binds”.
